# Results of single-concentration screens

Source: ChEMBL document CHEMBL3988442, “University of Dundee, Small-Polar-MMV Screening Library” (2021).

A: 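Phenotypic screen: M. tuberculosis growth, glucose 7H9 medium, 3 days; the read-out is not stated. Concentration: 50 µM. Direction is inferred from retests: higher values go with more growth inhibition. Size under these conditions: about 69,000 compounds, about 760 of them at 50% or above in at least one test.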
B: 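Whole-cell growth test on Mycobacterium tuberculosis, read after 4 days in a medium based on cholesterol and the lipid DPPC; the read-out is not stated. Compounds at 50 µM. Higher reads as more growth inhibition (inferred: compounds with an IC50 in retests scored well above the rest). Of about 69,000 compounds tested this way, about 370 (0.54%) reached 50% or more in at least one test.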

Values are the deposited “Percent Effect”, in %.
How 0% and 100% were set is not recorded. Most values in the screen are low, and negative values occur.
The compounds are a random part of those screened.
Two or more numbers in one place are separate tests of the same structure; such repeats can differ widely.

| structure | A | B |
|---|---|---|
| `Cc1nc(C2CCCN2CCCS(N)(=O)=O)no1` (stereo not given) | -1.266% | -4.878% |
| `CNC(=O)c1ccc2c(OC)n(C)nc2c1` | 12.25% & 4.417% | 19.97% |
| `CC1c2ncc(CNC(=O)C3CC3)n2CCN1CC1CCC1.O=C(O)C(F)(F)F` (stereo not given) | 10.1% | -12.33% |
| `COCC1CC2(CCN(Cc3ccoc3)CC2)CN1Cc1ccccn1` (stereo not given) | -56.41% | -26.8% |
| `COCCN1CCN(CC(=O)N(C)Cc2ccsc2)CC1C` (stereo not given) | -11.05% | 8.643% |
| `Cc1nn(CC(C)C)cc1S(=O)(=O)N(C)Cc1nonc1C` | -2.469% | -5.24% |
| `CN(C)C(=O)c1csc(-c2ccoc2)n1` | -0.8984% | -8.097% |
| `Cc1ccc(-c2ccnc(N3CCC4(CC3)CNC(=O)O4)n2)c(C)n1` | 3.949% | -7.833% |
| `NC(=O)C1CCCN(C(=O)c2ccc(-n3ccnc3)cc2)C1` (stereo not given) | -3.851% & 1.286% | 0.9146% |
| `Cc1nn(C)c2nc(C(C)C)cc(C(=O)Nc3n[nH]c(C4CC4)n3)c12` | 7.864% & -12.18% | -32.83% |
| `O=S(=O)(NCCc1ccccc1F)N1CCOCC1` | 2.644% | -4.657% & -4.956% |
| `CC(CCN(C)C)NC(=O)N1CCSC(C)(C)C1` (stereo not given) | -4.465% | 16.27% |
| `C1CC(c2nnc(CN3CCCC3c3noc(C4CC4)n3)o2)C1` (stereo not given) | -15.31% | -7.727% |
| `COCCCNC(=O)c1ccccc1S(C)(=O)=O` | 18.42% | 3.571% |
| `O=C(O)C(F)(F)F.O=C(O)C(F)(F)F.[H][C@@]12CN(CCOC)CCO[C@]1([H])CN(Cc1ccccc1OC)C2` | -11.37% & -25.62% | -1.626% |
| `CN(Cc1cnn(C)c1)C(=O)NCc1nnc2n1CCC2` | -32.23% | -11.14% |
| `CCC(=O)NC(C)c1ccccc1C` (stereo not given) | 10.73% | 12.31% |
| `COc1ccc(NC(=O)CCC2CCCN(S(=O)(=O)C3CC3)C2)c(C)c1` (stereo not given) | 0.336% | -13.61% & 5.748% |
| `CC(C)Nc1ncnc2c1CCN(C(=O)N1CCOCC1)CC2` | -20.6% | -6.084% |
| `O=C(Cc1ccsc1)N1CCCC(c2cc(C(F)F)n3ncnc3n2)C1` (stereo not given) | -8.389% | -5.896% |
| `CC(C)(CO)N1CCN(S(=O)(=O)CCCF)CC1` | 16.24% & -1.59% | 18.13% |
| `CCn1ncc2c1C(COCC1CC1)N(Cc1c(C)noc1C)CC2.O=C(O)C(F)(F)F.O=C(O)C(F)(F)F` (stereo not given) | -3.472% & 6.255% | -22.93% |
| `CCC(NC(=O)c1nn(C)cc1C(=O)O)c1ccccc1` (stereo not given) | -12.71% | -11.82% |
| `O=C(c1cnccn1)N1CCN(Cc2ccncc2)c2ncccc2C1` | 1.11% | 8.327% |
| `NC(=O)c1cncc(N2CCN(Cc3ccc(F)cc3Cl)CC2)n1` | 13.53% & 8.646% | 15.15% |
| `CCOc1cccc(CCNC(=O)Cc2ccccc2O)n1` | -1.434% | 6.472% |
| `CCc1nc(C2CCCN(C(=O)NCCOC)C2)no1` (stereo not given) | -11.64% | -7.11% |
| `Cc1cccc2nc(CN3CCC(Cn4ccnn4)CC3)cc(=O)n12` | -3.933% & -15.05% | -15.33% |
| `O=C(C1CN(CC2CC2)CC12CCOCC2)N1CCOCC1.O=C(O)C(F)(F)F` (stereo not given) | -24.16% & -6.531% | -2.212% |
| `COc1coc(CN2CCCC(CCc3ccccc3C)C2)cc1=O` (stereo not given) | 36.39% & 31.97% | 34.42% |
| `O=C(CCC1CCCO1)NCc1ccnc(-n2cccn2)c1` (stereo not given) | -33.54% | -26.97% |
| `CCCc1cc(C(=O)NC(c2ccccc2)c2n[nH]c(C)n2)[nH]n1` (stereo not given) | -4.724% | 4.39% |
| `CCC(C)NC(=O)CCNC(=O)c1c[nH]cc1-c1cccc(OC)c1` (stereo not given) | -13.33% | -15.69% |
| `CC(C)=Cc1c(-c2ccccc2)ncn1CCS(C)(=O)=O` | 15.81% | 8.819% |
| `Nc1ccc(CC2CCCN(Cc3c[nH]cn3)C2)nn1` (stereo not given) | 19.55% | 9.101% |
| `Cn1nc(N2CCCC(C(=O)Nc3nccs3)C2)ccc1=O` (stereo not given) | -0.3981% | -51.34% |
| `CNCC(=O)N1CC(c2cc(Nc3nc(C)cs3)nc(C)n2)C1.Cl` | 35.31% | 9.089% |
| `COC(=O)c1cccc(C(=O)N2CCN(c3ccccc3F)CC2)n1` | -1.075% | 10.37% |
| `N#Cc1c(Cl)nsc1NCc1ccc(N2CCCC(C(N)=O)C2)cc1` (stereo not given) | -12.98% | 4.353% |
| `Cc1cc(C(=O)NCC2COCc3c(C)nnn3C2)no1` (stereo not given) | -3.622% | -16.98% |
| `COCc1cnc2n1CCN(C(=O)c1cc3cc(Cl)ccc3o1)C2C` (stereo not given) | -10.54% | -11.95% |
| `CCc1ccsc1C(=O)N1CCN(CC(N)=O)CC1` | -27.4% | -21.79% |
| `COCCN1CCC2(CC1)CC(NC(=O)C(C)C)c1ccccc1O2.O=C(O)C(F)(F)F` (stereo not given) | 20.3% | -3.848% |
| `COCC(=O)N1CCC2(CC1)CCn1c(-c3cccc(OC)c3)cnc12` | -5.429% & -22.44% | -16.24% |
| `[H][C@]12CN(C(=O)C3CCOCC3)CCN1C(=O)N(Cc1ccc(F)cc1)C2` | -33.48% & 5.014% | 3.779% |
| `O=C(O)C(F)(F)F.O=C(O)C(F)(F)F.c1ccc(OCc2nnc3n2CCN(CC2CC2)C3)nc1` | 11.78% | -18.29% |
| `O=C(CC1CC2(CCNCC2)c2ccccc21)NCC1CC1` (stereo not given) | -19.89% | -30.55% |
| `CNC(=O)[C@@H](CC(C)C)N1CCC[C@H]1C(=O)N(C)Cc1cccnc1.Cl.Cl` | -6.131% & -2.956% | 2.257% |
| `COc1ccc2c(c1)CN(c1nc(C)cc(C)n1)CC2` | 19.45% | 5.729% |
| `CCn1ncnc1C(C)Nc1cc(C)c2ccc(SC)cc2n1` (stereo not given) | -1.474% | 5.635% |
| `Cn1ncc2c(NCC3CCS(=O)(=O)C3)nc(C3CCCC3)nc21` (stereo not given) | 3.11% | 7.445% & -4.324% |
| `CCCOc1ccc(Cl)cc1C(=O)N1CCC(n2cncn2)CC1` | 17.11% | 7.244% |
| `C/C=C(\C)CN1C[C@@H](NC(=O)c2ccc(F)c(F)c2)C[C@H]1C(=O)NCC` | 12.49% | -15.86% |
| `O=C(CC1=CCCCC1)NCCc1csc(N2CCCC2)n1` | 28.75% | 0.3527% |
| `CC(O)CCN(C)C(=O)Nc1ccc(Br)cc1` (stereo not given) | 3.957% & -7.601% | -29.78% |
| `Cl.O=C(NCCn1nc(C2CCNC2)c2cccnc21)C1CCC1` (stereo not given) | -9.073% | 4.118% |
| `CCNC(=O)[C@@H]1C[C@@H](N)CN1C(=O)C1(c2ccc(OC)cc2)CCCC1` | 0.06007% & 17.06% | 3.597% |
| `Cl.O=C(Cc1ccc(F)cc1)N1CCN(CC(O)C2CC2)CC1` (stereo not given) | -5.503% & -23.24% | -14.21% |
| `CC(C)n1nc(Cn2cccc2)c2c1CN(Cc1ccoc1)C2.O=C(O)C(F)(F)F` | 15% & 14.98% | -23.28% |

The first 6 entries again:

structure	A	B
Cc1nc(C2CCCN2CCCS(N)(=O)=O)no1 (stereo not given)	-1.266%	-4.878%
CNC(=O)c1ccc2c(OC)n(C)nc2c1	12.25% & 4.417%	19.97%
CC1c2ncc(CNC(=O)C3CC3)n2CCN1CC1CCC1.O=C(O)C(F)(F)F (stereo not given)	10.1%	-12.33%
COCC1CC2(CCN(Cc3ccoc3)CC2)CN1Cc1ccccn1 (stereo not given)	-56.41%	-26.8%
COCCN1CCN(CC(=O)N(C)Cc2ccsc2)CC1C (stereo not given)	-11.05%	8.643%
Cc1nn(CC(C)C)cc1S(=O)(=O)N(C)Cc1nonc1C	-2.469%	-5.24%